The list shows a part of the results.
Columns and labels:
Assay in all cases: glycan array binding signal (z-score within array); higher = stronger binding
Settings in all cases: glycan notation: IUPAC condensed, linker removed
[1] = target: Neu5Ac(a2-6)Gal(b1-4)GlcNAc(b1-3)Gal(b1-4)GlcNAc(b1-3)GalNAc
Procedure, shortened: (§1)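 Arrays were curated from the Consortium for Functional Glycomics database, 3228 in total, and kept only where the protein sequence was available. Binding is expressed as a within-array Z-score. This score was averaged across arrays of the same protein sequence at different concentrations or buffers and across linkers, and negative values can be read as non-binding.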

[2] = target: Neu5Ac(a2-6)Gal(b1-4)GlcNAc(b1-3)Gal(b1-4)GlcNAc(b1-3)[Neu5Ac(a2-6)Gal(b1-4)GlcNAc(b1-3)Gal(b1-4)GlcNAc(b1-6)]GalNAc
Procedure, shortened: as §1

[3] = target: Neu5Ac(a2-6)Gal(b1-4)GlcNAc(b1-3)Gal(b1-4)GlcNAc(b1-6)[Gal(b1-3)]GalNAc
Procedure, shortened: as §1

[4] = target: Neu5Ac(a2-6)Gal(b1-4)GlcNAc(b1-3)Gal(b1-4)[Fuc(a1-3)]GlcNAc(b1-3)Gal(b1-4)[Fuc(a1-3)]GlcNAc
Procedure, shortened: as §1

[5] = target: Neu5Ac(a2-6)Gal(b1-4)GlcNAc(b1-3)GalNAc
Procedure, shortened: as §1

[6] = target: Neu5Ac(a2-6)Gal(b1-4)GlcNAc(b1-3)[Neu5Ac(a2-6)Gal(b1-4)GlcNAc(b1-6)]GalNAc
Procedure, shortened: as §1

[7] = target: Neu5Ac(a2-6)Gal(b1-4)GlcNAc(b1-6)GalNAc
Procedure, shortened: as §1

[8] = target: Neu5Ac(a2-6)Gal(b1-4)GlcNAc(b1-6)[Gal(b1-3)GlcNAc(b1-3)]Gal(b1-4)Glc
Procedure, shortened: as §1

[9] = target: Neu5Ac(a2-6)Gal(b1-4)GlcNAc(b1-6)[Gal(b1-3)]GalNAc
Procedure, shortened: as §1

[10] = target: Neu5Ac(a2-6)Gal(b1-4)GlcNAc6S
Procedure, shortened: as §1

Neu5Ac(a2-6)GalNAc = target: Neu5Ac(a2-6)GalNAc
Procedure, shortened: as §1

[11] = target: Neu5Ac(a2-6)GalNAc(b1-4)GlcNAc
Procedure, shortened: as §1

[12] = target: Neu5Ac(a2-6)GalNAc(b1-4)GlcNAc6S
Procedure, shortened: as §1

[13] = target: Neu5Ac(a2-6)GlcNAc(b1-4)GlcNAc
Procedure, shortened: as §1

[14] = target: Neu5Ac(a2-6)GlcNAc(b1-4)GlcNAc(b1-4)GlcNAc
Procedure, shortened: as §1

Neu5Ac(a2-8)Neu5Ac = target: Neu5Ac(a2-8)Neu5Ac
Procedure, shortened: as §1

[15] = target: Neu5Ac(a2-8)Neu5Ac(a2-3)Gal(b1-3)GalNAc(b1-4)[Neu5Ac(a2-3)]Gal(b1-4)Glc
Procedure, shortened: as §1

[16] = target: Neu5Ac(a2-8)Neu5Ac(a2-3)Gal(b1-3)GalNAc(b1-4)[Neu5Ac(a2-8)Neu5Ac(a2-3)]Gal(b1-4)Glc
Procedure, shortened: as §1

[17] = target: Neu5Ac(a2-8)Neu5Ac(a2-3)Gal(b1-4)Glc
Procedure, shortened: as §1

[18] = target: Neu5Ac(a2-8)Neu5Ac(a2-3)Gal(b1-4)GlcNAc
Procedure, shortened: as §1

[19] = target: Neu5Ac(a2-8)Neu5Ac(a2-3)[Gal(b1-3)GalNAc(b1-4)]Gal(b1-4)Glc
Procedure, shortened: as §1

[20] = target: Neu5Ac(a2-8)Neu5Ac(a2-3)[GalNAc(b1-4)]Gal(b1-4)Glc
Procedure, shortened: as §1

[21] = target: Neu5Ac(a2-8)Neu5Ac(a2-8)Neu5Ac
Procedure, shortened: as §1

[22] = target: Neu5Ac(a2-8)Neu5Ac(a2-8)Neu5Ac(a2-3)Gal(b1-4)Glc
Procedure, shortened: as §1

[23] = target: Neu5Ac(a2-8)Neu5Ac(a2-8)Neu5Ac(a2-3)[Gal(b1-3)GalNAc(b1-4)]Gal(b1-4)Glc
Procedure, shortened: as §1

[24] = target: Neu5Ac(a2-8)Neu5Ac(a2-8)Neu5Ac(a2-3)[GalNAc(b1-4)]Gal(b1-4)Glc
Procedure, shortened: as §1

[25] = target: Neu5Ac(a2-8)Neu5Ac(a2-8)Neu5Ac(a2-8)Neu5Ac(a2-3)[GalNAc(b1-4)]Gal(b1-4)Glc
Procedure, shortened: as §1

[26] = target: Neu5Ac(a2-8)Neu5Gc(a2-3)Gal(b1-4)GlcNAc
Procedure, shortened: as §1

[27] = target: Neu5Ac(b2-6)Gal(b1-4)GlcNAc
Procedure, shortened: as §1

Neu5Ac(b2-6)GalNAc = target: Neu5Ac(b2-6)GalNAc
Procedure, shortened: as §1

[28] = target: Neu5Ac9Ac(a2-3)Gal(b1-3)GlcNAc
Procedure, shortened: as §1

[29] = target: Neu5Ac9Ac(a2-3)Gal(b1-4)GlcNAc
Procedure, shortened: as §1

[30] = target: Neu5Ac9Ac(a2-6)Gal(b1-4)GlcNAc
Procedure, shortened: as §1

[31] = target: Neu5Gc(a2-3)Gal(b1-3)GlcNAc
Procedure, shortened: as §1

[32] = target: Neu5Gc(a2-3)Gal(b1-3)[Fuc(a1-4)]GlcNAc
Procedure, shortened: as §1

Neu5Gc(a2-3)Gal(b1-4)Glc = target: Neu5Gc(a2-3)Gal(b1-4)Glc
Procedure, shortened: as §1

[33] = target: Neu5Gc(a2-3)Gal(b1-4)GlcNAc
Procedure, shortened: as §1

[34] = target: Neu5Gc(a2-3)Gal(b1-4)GlcNAc(b1-3)Gal(b1-4)GlcNAc(b1-2)Man(a1-3)[Neu5Gc(a2-3)Gal(b1-4)GlcNAc(b1-3)Gal(b1-4)GlcNAc(b1-2)Man(a1-6)]Man(b1-4)GlcNAc(b1-4)GlcNAc
Procedure, shortened: as §1

[35] = target: Neu5Gc(a2-3)Gal(b1-4)[Fuc(a1-3)]GlcNAc
Procedure, shortened: as §1

[36] = target: Neu5Gc(a2-6)Gal(b1-4)GlcNAc
Procedure, shortened: as §1

Neu5Gc(a2-6)GalNAc = target: Neu5Gc(a2-6)GalNAc
Procedure, shortened: as §1

[37] = target: Neu5Gc(a2-8)Neu5Ac(a2-3)Gal(b1-4)GlcNAc
Procedure, shortened: as §1

[38] = target: Neu5Gc(a2-8)Neu5Gc(a2-3)Gal(b1-4)GlcNAc
Procedure, shortened: as §1

[39] = target: Neu5Gc(a2-8)Neu5Gc(a2-3)Gal(b1-4)GlcNAc(b1-3)Gal(b1-4)GlcNAc
Procedure, shortened: as §1

[40] = target: Neu5Gc(a2-8)Neu5Gc(a2-6)Gal(b1-4)GlcNAc
Procedure, shortened: as §1

B1: Pwp6 (Candida glabrata) (protein)
chain: MGSSHHHHHHSSGLVPRGSHMASANLPKLTNICQIPDNVKKTSGFKGEIRRIGLFPPGGDYTYLLKFPSTGSTASDTISLTTKPQLSTSGWFPSLFGHTYFIKADLLVYMVAYFVPTETGEYTFKLVNSDDAAVMYVGNPSAFPCGSIDTWPEPRKEDINVCDKISASTKLYMEKGLAYPVRLVWYNGGGDGQFNAQFIDPSGTTHTDWNGYVWQYDACTDCDYK
Question: For B1, which “glycan array binding signal (z-score)” value [1] is on record?
Answer: 0.434

Question: What about the “glycan array binding signal (z-score)” value [2] of the same binder?
Answer: 1.55

Question: And the “glycan array binding signal (z-score)” value [3]?
Answer: -0.211

Question: What about the “glycan array binding signal (z-score)” value [4] of the same binder?
Answer: -0.242

Question: And the “glycan array binding signal (z-score)” value [5]?
Answer: 0.225

Question: What about the “glycan array binding signal (z-score)” value [6] of the same binder?
Answer: -0.208

Question: What about the “glycan array binding signal (z-score)” value [7] of the same binder?
Answer: 0.04

Question: And the “glycan array binding signal (z-score)” value [8]?
Answer: -0.043

Question: And the “glycan array binding signal (z-score)” value [9]?
Answer: 0.896

Question: What about the “glycan array binding signal (z-score)” value [10] of the same binder?
Answer: -0.336

Question: And the “glycan array binding signal (z-score)” value (Neu5Ac(a2-6)GalNAc)?
Answer: -0.898

Question: What about the “glycan array binding signal (z-score)” value [11] of the same binder?
Answer: -0.603

Question: What about the “glycan array binding signal (z-score)” value [12] of the same binder?
Answer: 0.14

Question: And the “glycan array binding signal (z-score)” value [13]?
Answer: 1.37

Question: And the “glycan array binding signal (z-score)” value [14]?
Answer: -0.291

Question: And the “glycan array binding signal (z-score)” value (Neu5Ac(a2-8)Neu5Ac)?
Answer: -0.112

Question: And the “glycan array binding signal (z-score)” value [15]?
Answer: -0.035

Question: What about the “glycan array binding signal (z-score)” value [16] of the same binder?
Answer: -0.624

Question: What about the “glycan array binding signal (z-score)” value [17] of the same binder?
Answer: -0.511

Question: And the “glycan array binding signal (z-score)” value [18]?
Answer: -0.086

Question: What about the “glycan array binding signal (z-score)” value [19] of the same binder?
Answer: -0.487

Question: What about the “glycan array binding signal (z-score)” value [20] of the same binder?
Answer: 0.066

Question: And the “glycan array binding signal (z-score)” value [21]?
Answer: -0.376

Question: And the “glycan array binding signal (z-score)” value [22]?
Answer: -0.193

Question: What about the “glycan array binding signal (z-score)” value [23] of the same binder?
Answer: 0.004

Question: And the “glycan array binding signal (z-score)” value [24]?
Answer: 0.494

Question: What about the “glycan array binding signal (z-score)” value [25] of the same binder?
Answer: -0.199

Question: What about the “glycan array binding signal (z-score)” value [26] of the same binder?
Answer: -0.452

Question: What about the “glycan array binding signal (z-score)” value [27] of the same binder?
Answer: -0.419

Question: What about the “glycan array binding signal (z-score)” value (Neu5Ac(b2-6)GalNAc) of the same binder?
Answer: -0.624

Question: And the “glycan array binding signal (z-score)” value [28]?
Answer: -0.646

Question: What about the “glycan array binding signal (z-score)” value [29] of the same binder?
Answer: -0.816

Question: And the “glycan array binding signal (z-score)” value [30]?
Answer: -0.933

Question: What about the “glycan array binding signal (z-score)” value [31] of the same binder?
Answer: -0.614

Question: What about the “glycan array binding signal (z-score)” value [32] of the same binder?
Answer: -0.461

Question: What about the “glycan array binding signal (z-score)” value (Neu5Gc(a2-3)Gal(b1-4)Glc) of the same binder?
Answer: -0.283

Question: And the “glycan array binding signal (z-score)” value [33]?
Answer: -0.327

Question: What about the “glycan array binding signal (z-score)” value [34] of the same binder?
Answer: 1.29

Question: What about the “glycan array binding signal (z-score)” value [35] of the same binder?
Answer: -0.654

Question: What about the “glycan array binding signal (z-score)” value [36] of the same binder?
Answer: -0.58

Question: And the “glycan array binding signal (z-score)” value (Neu5Gc(a2-6)GalNAc)?
Answer: -0.745

Question: And the “glycan array binding signal (z-score)” value [37]?
Answer: -0.622

Question: And the “glycan array binding signal (z-score)” value [38]?
Answer: -0.427

Question: And the “glycan array binding signal (z-score)” value [39]?
Answer: -0.402

Question: What about the “glycan array binding signal (z-score)” value [40] of the same binder?
Answer: -0.59

Reference: the supplement of paper PMC8728848
